Data taken from US20040029178A1 (priority 2000, published 2004).

Assay: general procedure: Fmoc solid-phase peptide synthesis; 2-chlorotrityl resin; DCC/HOBt
Settings: whole synthesis, scale 150 mg of the resin

## Fmoc-Trp-Tyr-Lys-His-Val-Ala-Ser-Pro-Arg-Tyr-His-Thr-Val-Gly-Arg-Ala-Ala-Gly-Leu-Leu-Met-Gly-Leu
  isolated mass: 9.7 mg
